{"source": "paper PMC4418665", "about": "(PLoS ONE, 2015)", "test": "general procedure: Fmoc solid-phase peptide synthesis; 2-chlorotrityl chloride resin", "conditions": "whole synthesis, Analytical RP-HPLC", "note": "Strings that start with PEPTIDE1 are HELM notation: dots part the residues, brackets hold end groups and non-standard residues."}
{"substance": "PEPTIDE1{R.S.S.Y.R}$PEPTIDE1,PEPTIDE1,1:R1-5:R2$$$V2.0", "values": [{"measurement": "final HPLC purity", "result": 95.76, "unit": "%"}]}
